Data from patent US20220204601A1.
No constants are given. Whether binding was seen depends on the method and setting. Some binding calls cover weakened binding; strength is not graded here.

The chains behind the UniProt entries cited, without tags or fusion partners. Where a name states a change or a piece, a line headed by the entry shows the natural chain unless it says otherwise.
UniProt P10636: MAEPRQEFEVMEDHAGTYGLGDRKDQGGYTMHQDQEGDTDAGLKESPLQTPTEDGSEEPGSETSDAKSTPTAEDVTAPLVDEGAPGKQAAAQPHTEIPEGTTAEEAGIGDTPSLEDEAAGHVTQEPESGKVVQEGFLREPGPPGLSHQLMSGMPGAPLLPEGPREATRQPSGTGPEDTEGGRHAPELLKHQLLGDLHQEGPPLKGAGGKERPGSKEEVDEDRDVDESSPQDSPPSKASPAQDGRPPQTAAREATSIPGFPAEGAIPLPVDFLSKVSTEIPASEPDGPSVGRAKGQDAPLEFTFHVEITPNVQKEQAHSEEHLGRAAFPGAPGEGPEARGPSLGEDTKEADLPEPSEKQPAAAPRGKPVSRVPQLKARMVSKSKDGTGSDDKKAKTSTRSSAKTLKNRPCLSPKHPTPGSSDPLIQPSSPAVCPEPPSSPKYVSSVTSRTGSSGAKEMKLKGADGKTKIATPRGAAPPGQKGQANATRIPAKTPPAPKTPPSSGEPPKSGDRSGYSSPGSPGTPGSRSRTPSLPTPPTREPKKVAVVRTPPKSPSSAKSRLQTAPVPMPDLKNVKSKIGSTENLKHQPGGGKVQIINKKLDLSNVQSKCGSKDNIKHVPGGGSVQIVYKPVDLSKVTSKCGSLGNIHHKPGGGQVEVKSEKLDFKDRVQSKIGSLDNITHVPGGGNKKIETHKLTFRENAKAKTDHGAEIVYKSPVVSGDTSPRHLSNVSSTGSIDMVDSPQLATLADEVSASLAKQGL

Molecular target: acetylated wild type tau protein (tau protein in which the 280th amino acid lysine is acetylated) (human) (UniProt P10636)
Assay: plate assay as drawn: capture Ab 1ug/well, antigen titrated, unit of the antigen amount not given

B1: ADEL-Y01h01_v01 antibody (antibody, V domains shown)
VH: EVQLQESGPGLVKPSQTLSLTCTVSGDSITSGYWNWIRQPPGKGLEYIGYIRYSGRTYYNPSLKSRVTISRDTSKNQFSLKLSSVTAADTAVYYCASVYFTYWGQGTLVTVSS
VL: DVVMTQSPLSLPVTLGQPASISCKSSQSLLDSDGKTYLNWFQQRPGQSPKRLISLVSKLDSGVPDRFSGSGSGTDFTLKISRVEAEDVGVYYCWQGSHFPYTFGQGTKLEIK
binding: binds
